The values below come from patent publication US20110230471A1, “BENZONAPHTYRIDINE COMPOUNDS AS INHIBITORS OF AUTOTAXIN” (MERCK PATENT GESELLSCHAFT MIT BESCHRANKTER HAFTUNG, priority 2008, published 2011).

The target of the assay is recombinant autotaxin (Homo sapiens, UniProt Q13822). Description: Autotaxin test (enzyme test), Amplex Red. Conditions: Autotaxin inhibition (enzyme test), substrate LPC 75 μM. As to the method: The autotaxin activity is measured indirectly using Amplex Red reagent. Amplex Red is measured here as fluorogenic indicator for the H2O2 formed. In detail, autotaxin converts the substrate lysophosphatidylcholine (LPC) into phosphocholine and lysophosphatidylic acid (LPA). After this reaction, the phosphocholine is reacted with alkaline phosphatase to give inorganic phosphate and choline. In the next step, choline is oxidised by choline oxidase to give betaine, with formation of H2O2. H2O2 reacts with Amplex Red reagent in the presence of peroxidase (horseradish peroxidase) in a 1:1 stoichiometry and forms the highly fluorescent resorufin. The fluorescence is measured in a reaction-dependent kinetic mode in order that fluorescent signals from possible other fluorescent substances which are not involved in the reaction can be corrected out.
1.5 μl of a standard solution or of the test substances (substances with the name A(n))in individual concentrations dissolved in 20 mM Hepes pH 7.2 with a maximum of 7.7% of DMSO are pre-incubated together with 10 μl (16 ng) of highly purified recombinant autotaxin in a black microtitre plate provided with 384 wells at 22° C. for 30 min. […] The activity of autotaxin is calculated indirectly via detection of the H2O2 formed. […]

Structures were worked out from names or drawings and are uncertain.

By IC50 is commonly meant the midpoint of a concentration-inhibition curve. On to `COc1ccc(Cl)cc1NC(=O)CN1CCc2nc3ccccc3c(C(=O)N3CCC(N(C)C)CC3)c2C1`, for which, for the setting “TABLE 2 (B compounds)”, the IC50 was 100 to 1000 nM.

Take `COc1cc(OC)c(NC(=O)CN2CCc3nc4ccccc4c(C(=O)N4CCN(CCO)CC4)c3C2)cc1Cl`: the IC50 (TABLE 1 (A compounds)) was over 1000 nM.
